The other results are listed elsewhere or left out. The main result of the screen is listed elsewhere. These columns were measured beside it and carry no call. Compounds called inactive in the main read-out are mostly missing here. Potencies come from curve fits of mixed quality, noted in brackets.
Test: qHTS Assay for Lipid Storage Modulators in Drosophila S3 Cells;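 as to cell number change: cells counted by Cell Tracker Red CMTPX staining in the red channel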
Details: BODIPY lipid droplet fluorescence, 18-24 h; for cell number change: measured here: cell count max response, cells fed with added oleic acid
Method in brief: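 Laser-scanning cytometry quantifies lipid droplet accumulation (500–530 nm total intensity; droplet/cell object ratio) in oleic acid-fed (400 uM added) Drosophila S3 cells treated with a concentration series. 20 uM Triacsin C defined 100% inhibition.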

[1] = measured here: cell number channel AC50, cells fed with added oleic acid
[2] = measured here: lipid fluorescence (Fed channel) AC50, cells fed with added oleic acid

CCOC(=O)c1c(NC(=O)COC(=O)c2nc(Cl)ccc2Cl)sc(C(=O)N(C)C)c1C
AC50 [1]: 2.91 µM [rising, single point]
AC50 [2]: 6.51 µM [rising, single point]

COCCNc1nc(N)c([N+](=O)[O-])c(NCc2ccccc2)n1
cell number change: 47.7%
AC50 [1]: 29.1 µM [rising, single point]

COc1cc(CNC2CCCCC2OC)cc(OC)c1 (centres undefined)
cell number change: -6.96%

Clc1ccc(OCCCCCN2CCOCC2)cc1
cell number change: -8.66%
AC50 [2]: 0.13 µM [falling, full curve, poor fit]

Cc1nnc(SCCCn2c(N3CCCCC3)nc3c2c(=O)[nH]c(=O)n3C)s1
cell number change: 96.5%
AC50 [1]: 29.1 µM [rising, partial curve, poor fit]
AC50 [2]: 29.1 µM [rising, single point]

O=C(CN(C(=O)CNS(=O)(=O)c1ccc(F)cc1)c1ccccc1)NCc1ccco1
cell number change: 17.9%
AC50 [2]: 29.1 µM [rising, single point]

Cc1cc(C)cc(OCc2nnc(SCC(=O)c3ccc(Br)cc3)o2)c1
cell number change: -16.8%
AC50 [2]: 3.66 µM [rising, partial curve, poor fit]

Cc1ccc(C)c(S(=O)(=O)N2CCN(C(=O)CSC(=S)N3CCCC3)CC2)c1
cell number change: 19.1%
AC50 [1]: 3.66 µM [rising, single point]
AC50 [2]: 6.51 µM [rising, single point]

CCOc1ccc(-c2nc(N)ncc2Oc2cccc(OC)c2)c(O)c1
cell number change: -19.4%
AC50 [2]: 2.06 µM [rising, partial curve]

CC1=NOC2(C1)/C(=N/O)CCC/C2=N\O (centres undefined)
cell number change: -12.6%
AC50 [2]: 1.64 µM [falling, full curve, poor fit]

Cc1c(C(=O)OCC(=O)N2CC(C)OC(C)C2)oc2ccc(Br)cc12 (centres undefined)
AC50 [2]: 32.6 µM [falling, single point]

Cc1occc1C(=O)NCc1ccc2c(c1)OCO2
cell number change: 13.2%
AC50 [2]: 16.4 µM [rising, partial curve]

O=C(O)CC(c1cccc(C(F)(F)F)c1)N1CCS(=O)(=O)CC1 (centres undefined)
cell number change: 28.8%
AC50 [2]: 1.84 µM [rising, partial curve]

Cc1ccc(C)c(-c2nnc(NC(=O)Cc3ccccc3)o2)c1
cell number change: 27.4%
AC50 [2]: 29.1 µM [rising, single point]

COC(=O)c1sc(N2C(=O)C(O)=C(C(=O)c3ccc(C)o3)C2c2ccc(OC)c(OC)c2)nc1C (centres undefined)
cell number change: 0.578%
AC50 [2]: 0.731 µM [falling, full curve, poor fit]

COc1ccc(-c2cn3c(C)c(C(=O)Nc4cccc(NC(C)=O)c4)sc3n2)cc1
cell number change: 34.8%
AC50 [1]: 20.6 µM [rising, partial curve]

CC(C)Cn1c(N)c(C(=O)NCc2cccs2)c2nc3ccccc3nc21
cell number change: -165%
AC50 [1]: 0.461 µM [falling, single point]

CC(OC(=O)Cn1c(C(F)(F)F)nc2ccccc21)C(N)=O (centres undefined)
cell number change: -10.4%
AC50 [2]: 0.82 µM [rising, single point]

COc1ccc(C(C)=O)cc1CC(=O)Nc1ccc2c(c1)CCC2
cell number change: 23.4%
AC50 [2]: 4.11 µM [falling, single point]

COc1cccc(-c2nnc3sc(-c4cccs4)nn23)c1
cell number change: 0.197%
AC50 [2]: 5.17 µM [rising, partial curve]

CCC(C)NS(=O)(=O)c1ccc(NC(=O)c2ccc([N+](=O)[O-])cc2Cl)cc1 (centres undefined)
cell number change: -20.6%
AC50 [2]: 16.4 µM [falling, single point]

Cc1ccc(NC(=O)C2CCN(C(=O)c3cccs3)CC2)c(C)c1
cell number change: 0.901%

COc1cc(C(=O)NCCCc2ccccc2)cc(OC)c1OC
cell number change: -16.8%
AC50 [2]: 2.31 µM [rising, single point]

CC(C)CSc1nnc(N)s1
cell number change: -12.9%
AC50 [1]: 0.092 µM [rising, full curve, poor fit]

COC(=O)C1(C(=O)OC)NOC2C(=O)N(c3ccccc3)C(=O)C21 (centres undefined)
cell number change: -44%
AC50 [1]: 25.9 µM [falling, single point]
AC50 [2]: 5.17 µM [falling, full curve]

O=C(c1cccc(S(=O)(=O)N2CCCC2)c1)N1CCOCC1
cell number change: 0.987%
AC50 [2]: 3.66 µM [falling, single point]

COc1ccc(OCC(=O)NCCNC(=O)c2ccccn2)cc1
AC50 [2]: 35.5 µM [rising, single point]

Cc1ccc(C(=O)N2CCN(c3cnn(C)c(=O)c3Cl)CC2)cc1
cell number change: -12.5%
AC50 [1]: 0.0731 µM [falling, full curve, poor fit]
AC50 [2]: 0.103 µM [falling, full curve, poor fit]

COc1ccc(Cl)cc1NC(=O)CCCN1C(=O)CCC1=O
cell number change: 16.1%
AC50 [1]: 0.82 µM [falling, single point]
AC50 [2]: 23.1 µM [falling, single point]

O=S(=O)(N/N=C/c1ccc(F)cc1)c1ccccc1
cell number change: 10.3%
AC50 [2]: 0.231 µM [rising, single point]

COc1ccc(CN2CCNC(=O)C2CC(=O)N(C)Cc2nc(C)cs2)c(OC)c1 (centres undefined)
cell number change: -25.7%
AC50 [2]: 6.51 µM [rising, single point]

CC(C)c1ccc(NC(=O)CNCC(c2ccccc2)N(C)C)cc1 (centres undefined)
cell number change: 16%
AC50 [1]: 6.51 µM [falling, single point]
AC50 [2]: 6.51 µM [falling, partial curve, poor fit]

CC(C)c1nnc(NC(=O)C2CCCN2C(=O)Nc2ccc(F)cc2)s1 (centres undefined)
cell number change: 3.42%
AC50 [2]: 29.1 µM [rising, single point]

O=C(C1CC1)N1CCC(c2nc(-c3ccc(S(=O)(=O)NCC4CCCO4)cc3)no2)CC1 (centres undefined)
AC50 [2]: 23.1 µM [falling, single point]

COc1cc(NC(=O)C2CCCN2S(=O)(=O)c2ccc3c(c2)CC(C)N3C(C)=O)cc(OC)c1 (centres undefined)
cell number change: 8.06%

N#CC(Cc1ccccc1OC(F)F)c1nc2ccccc2[nH]1 (centres undefined)
cell number change: 15%

CCC(C(=O)OC)n1cnc2scc(-c3ccc(C)cc3)c2c1=O (centres undefined)
cell number change: -28%
AC50 [2]: 29.1 µM [falling, single point]

CCOCCCNC(=O)c1oc2ccc(S(=O)(=O)N3CCOCC3)cc2c1C
AC50 [2]: 29.1 µM [falling, single point]

Source: PubChem BioAssay AID2685 (National Center for Advancing Translational Sciences (NCATS), 2010)
